These are yes or no findings as the source states them, for the method shown. In cells and extracts the contact can be indirect. Some binding calls cover weakened binding; strength is not graded here.
Experiments:
PARP1-Flag = PARP1-Flag (UniProt P09874); experiment: co-IP; HeLa and HEK293T cells transfected with the indicated recombinants, 48 h; reciprocal IP; in Fig. 5f with or without MARVELD1-V5
MARVELD1 = MARVELD1 (UniProt Q9BSK0); experiment: co-IP; IP with IgG or the indicated antibody after 8 mM HU (HeLa) or 4 mM HU (HEK293T) for 24 h, Western blot; interaction enhanced by HU

Amino acid sequences for entries named in this document (tags omitted).
UniProt P09874: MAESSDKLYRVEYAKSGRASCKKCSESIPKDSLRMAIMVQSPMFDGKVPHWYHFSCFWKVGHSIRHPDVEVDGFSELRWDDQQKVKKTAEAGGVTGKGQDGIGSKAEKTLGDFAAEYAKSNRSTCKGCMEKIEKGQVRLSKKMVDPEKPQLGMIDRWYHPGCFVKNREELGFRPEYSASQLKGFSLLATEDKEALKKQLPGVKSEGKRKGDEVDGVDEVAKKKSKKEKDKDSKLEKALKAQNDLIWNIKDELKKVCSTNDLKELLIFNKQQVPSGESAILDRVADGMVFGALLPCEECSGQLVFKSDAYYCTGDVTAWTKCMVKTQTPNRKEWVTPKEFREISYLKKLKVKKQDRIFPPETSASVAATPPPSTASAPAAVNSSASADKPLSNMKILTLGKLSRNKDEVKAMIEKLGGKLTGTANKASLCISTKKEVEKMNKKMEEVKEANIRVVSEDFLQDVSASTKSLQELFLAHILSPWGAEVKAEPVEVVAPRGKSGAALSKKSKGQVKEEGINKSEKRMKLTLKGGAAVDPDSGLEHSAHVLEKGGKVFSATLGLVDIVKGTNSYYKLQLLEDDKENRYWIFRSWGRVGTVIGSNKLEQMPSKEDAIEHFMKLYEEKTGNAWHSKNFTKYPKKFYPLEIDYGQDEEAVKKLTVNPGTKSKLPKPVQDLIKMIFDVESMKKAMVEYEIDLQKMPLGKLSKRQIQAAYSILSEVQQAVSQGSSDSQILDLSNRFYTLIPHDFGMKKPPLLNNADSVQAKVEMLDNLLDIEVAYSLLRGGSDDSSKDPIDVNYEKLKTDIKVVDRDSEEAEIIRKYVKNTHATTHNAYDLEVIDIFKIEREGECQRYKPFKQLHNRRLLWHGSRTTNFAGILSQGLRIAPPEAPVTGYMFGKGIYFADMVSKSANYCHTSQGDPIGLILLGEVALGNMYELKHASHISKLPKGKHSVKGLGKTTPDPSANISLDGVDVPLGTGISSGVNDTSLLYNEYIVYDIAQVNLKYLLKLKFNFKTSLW
UniProt Q9BSK0: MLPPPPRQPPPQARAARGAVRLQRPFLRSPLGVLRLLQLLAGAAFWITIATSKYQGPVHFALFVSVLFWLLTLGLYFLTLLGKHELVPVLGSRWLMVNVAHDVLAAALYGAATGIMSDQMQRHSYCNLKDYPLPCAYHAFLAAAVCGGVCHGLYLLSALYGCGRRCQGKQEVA

Row | binding (PARP1-Flag) | binding (MARVELD1) | Substance
1 | binds | – | MARVELD1-V5 (from UniProt Q9BSK0 1-173)
2 | – | binds | Poly(ADP-ribose) polymerase 1 (PARP1) (from UniProt P09874 1-1014)
